# Data as given in PubChem BioAssay AID1259254 (NCATS, 2017)
# Test: 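Genome-wide screen for genes that prevent DNA re-replication in cancer cells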 (primary screen)
# Cells: human HCT116 colorectal cancer cells
# Reagent: single siRNA against human genes
# Timing: 3 days
# Measurement: 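Imaged Hoechst DNA stain sorts each cell into a cycle phase by DNA amount; per plate, G2 fraction set to 0% for non-targeting and 100% for GMNN siRNA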
# Scale: G2 robust z-score and G2 cells, % of GMNN control: higher = more G2 cells, more excess DNA replication; raw share of cells in G2: higher = larger share of cells with G2 DNA content
# Hit rule: 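An siRNA counts as active if its G2 robust z-score lies at least 5 MADs above the screen median; here such calls match roughly 38% of GMNN control or more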
# The whole screen tested about 59,000 reagents; this is a random part of them. About 1,550 of them (2.6%) were called active. 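G2 share is only a proxy for re-replication; each gene was hit by three separate siRNAs, and active genes were retested.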 Raw values are not corrected between plates. Reagents against one gene are numbered here. The record does not give: the amount of reagent.
Target gene,reagent no.,G2 robust z-score,"G2 cells, % of GMNN control",raw share of cells in G2 (%),Call
SMAGP (small cell adhesion glycoprotein),1,0.751,8.25,7.6,inactive
SMAGP (small cell adhesion glycoprotein),2,1.06,10.4,9.45,inactive
SMAGP (small cell adhesion glycoprotein),3,-0.943,-3.66,1.87,inactive
SEPTIN10 (septin 10),1,6.51,48.8,29.2,active
SEPTIN10 (septin 10),2,0.836,8.85,7.94,inactive
SEPTIN10 (septin 10),3,-0.326,0.676,4.99,inactive
HEXD (hexosaminidase D),1,-0.599,-1.25,2.89,inactive
HEXD (hexosaminidase D),2,-0.744,-2.27,2.81,inactive
HEXD (hexosaminidase D),3,-0.471,-0.346,2.91,inactive
TFPI (tissue factor pathway inhibitor),1,0.222,4.53,6.54,inactive
TFPI (tissue factor pathway inhibitor),2,0.641,7.47,6.63,inactive
TFPI (tissue factor pathway inhibitor),3,2.72,22.1,13.1,inactive
GALNT12 (polypeptide N-acetylgalactosaminyltransferase 12),1,-0.0477,2.63,5.76,inactive
GALNT12 (polypeptide N-acetylgalactosaminyltransferase 12),2,-0.046,2.64,6.53,inactive
GALNT12 (polypeptide N-acetylgalactosaminyltransferase 12),3,0.0279,3.16,5.34,inactive
KCNG4,1,-0.86,-3.08,4.17,inactive
KCNG4,2,0.272,4.88,6.43,inactive
KCNG4,3,1.21,11.5,8.85,inactive
SLC25A31,1,3.67,28.8,14.6,inactive
SLC25A31,2,6.46,48.5,25.6,active
SLC25A31,3,0.74,8.18,7.81,inactive
NEUROD4 (neuronal differentiation 4),1,4.44,34.2,16.4,inactive
NEUROD4 (neuronal differentiation 4),2,3.18,25.3,13.4,inactive
NEUROD4 (neuronal differentiation 4),3,3.65,28.6,17.5,inactive
SLC35B1,1,11.2,81.5,42.2,active
SLC35B1,2,0.496,6.46,6.64,inactive
SLC35B1,3,0.802,8.61,6.54,inactive
SLC5A4,1,-1.77,-9.52,2.48,inactive
SLC5A4,2,-0.546,-0.871,4.25,inactive
SLC5A4,3,-0.701,-1.96,3.31,inactive
"TMPRSS11GP (transmembrane serine protease 11G, pseudogene)",1,-1.03,-4.28,2.01,inactive
"TMPRSS11GP (transmembrane serine protease 11G, pseudogene)",2,1.77,15.4,8.82,inactive
"TMPRSS11GP (transmembrane serine protease 11G, pseudogene)",3,2.68,21.9,9.51,inactive
TRRAP (transformation/transcription domain associated protein),1,-0.27,1.07,5.92,inactive
TRRAP (transformation/transcription domain associated protein),2,1.53,13.7,10.2,inactive
TRRAP (transformation/transcription domain associated protein),3,0.0871,3.58,4.83,inactive
SOBP (sine oculis binding protein homolog),1,-1.16,-5.18,2.54,inactive
SOBP (sine oculis binding protein homolog),2,0.0791,3.52,5.6,inactive
SOBP (sine oculis binding protein homolog),3,1.32,12.3,7.05,inactive
NRGN (neurogranin),1,-1.05,-4.45,2.46,inactive
NRGN (neurogranin),2,-1.77,-9.5,2.47,inactive
NRGN (neurogranin),3,-0.601,-1.26,4.98,inactive
AGTR1 (angiotensin II receptor type 1),1,0.349,5.43,7.78,inactive
AGTR1 (angiotensin II receptor type 1),2,-0.109,2.2,5.29,inactive
AGTR1 (angiotensin II receptor type 1),3,0.0715,3.47,4.33,inactive
LOC728416,1,-0.822,-2.81,2.47,inactive
LOC728416,2,-0.814,-2.76,1.9,inactive
LOC728416,3,-0.169,1.78,4.27,inactive
KIF12 (kinesin family member 12),1,-0.705,-1.99,4.74,inactive
KIF12 (kinesin family member 12),2,0.888,9.21,8.92,inactive
KIF12 (kinesin family member 12),3,-0.0164,2.85,5.56,inactive
C9 (complement C9),1,0.246,4.7,7.51,inactive
C9 (complement C9),2,0.635,7.44,6.81,inactive
C9 (complement C9),3,0.137,3.93,5.06,inactive
MON2 (MON2 regulator of endosome-to-Golgi trafficking),1,8.78,64.8,30.4,active
MON2 (MON2 regulator of endosome-to-Golgi trafficking),2,-0.0995,2.27,5.07,inactive
MON2 (MON2 regulator of endosome-to-Golgi trafficking),3,0.928,9.5,6.73,inactive
PQBP1 (polyglutamine binding protein 1),1,-0.424,-0.0126,3.52,inactive
PQBP1 (polyglutamine binding protein 1),2,0.555,6.87,9.05,inactive
PQBP1 (polyglutamine binding protein 1),3,-0.196,1.59,4.01,inactive
LAPTM4BP1 (lysosomal protein transmembrane 4 beta pseudogene 1),1,-0.211,1.49,4.34,inactive
LAPTM4BP1 (lysosomal protein transmembrane 4 beta pseudogene 1),2,0.157,4.07,4.73,inactive
LAPTM4BP1 (lysosomal protein transmembrane 4 beta pseudogene 1),3,-0.518,-0.674,2.83,inactive
RFX3 (regulatory factor X3),1,-0.605,-1.29,2.95,inactive
RFX3 (regulatory factor X3),2,0.0972,3.65,6.56,inactive
RFX3 (regulatory factor X3),3,-0.411,0.0783,3.14,inactive
LINC00520 (long independently transcribed non-coding RNA 520),1,1.71,15,9.45,inactive
LINC00520 (long independently transcribed non-coding RNA 520),2,-0.356,0.461,3.4,inactive
LINC00520 (long independently transcribed non-coding RNA 520),3,-0.264,1.11,3.4,inactive

Entries above whose gene name starts with P or p:
Target gene,reagent no.,G2 robust z-score,"G2 cells, % of GMNN control",raw share of cells in G2 (%),Call
PQBP1 (polyglutamine binding protein 1),1,-0.424,-0.0126,3.52,inactive
PQBP1 (polyglutamine binding protein 1),2,0.555,6.87,9.05,inactive
PQBP1 (polyglutamine binding protein 1),3,-0.196,1.59,4.01,inactive
